# The list shows a part of the results, in another mix than the full data. For part of these data: At the low end of the ranking the order means little. The list shows a part of the results. For part of these data: The source does not settle which construct or isoform was used.
# Protein sequences, listed by entry. Tags and fused reporters are not part of them. Lines headed by an entry give the natural chain unless they say otherwise; changes in a name come on top.
# UniProt Q00613: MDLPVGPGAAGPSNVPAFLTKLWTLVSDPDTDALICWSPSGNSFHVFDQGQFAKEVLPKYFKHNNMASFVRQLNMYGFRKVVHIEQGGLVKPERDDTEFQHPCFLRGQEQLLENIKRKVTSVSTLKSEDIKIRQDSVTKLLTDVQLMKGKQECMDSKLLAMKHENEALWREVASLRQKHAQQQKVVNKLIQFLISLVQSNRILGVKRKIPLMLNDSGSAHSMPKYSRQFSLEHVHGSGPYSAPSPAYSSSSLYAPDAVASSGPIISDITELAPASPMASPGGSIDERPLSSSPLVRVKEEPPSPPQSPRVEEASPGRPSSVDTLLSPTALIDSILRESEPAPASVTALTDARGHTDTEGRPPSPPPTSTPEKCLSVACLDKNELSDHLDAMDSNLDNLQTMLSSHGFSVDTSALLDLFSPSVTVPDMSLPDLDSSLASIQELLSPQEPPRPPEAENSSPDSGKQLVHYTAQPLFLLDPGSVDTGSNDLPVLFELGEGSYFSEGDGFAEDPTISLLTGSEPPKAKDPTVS
# How the values were obtained:
# HSF1 = HSF1 (UniProt Q00613); experiment: DAPPL (digital affinity profiling via proximity ligation, sequencing); settings: 10 mM Tris-HCl pH 7.5, 50 mM NaCl, 1 mM DTT, 4% glycerol, room temperature, 30 min; GST-TFs on glutathione beads, 16-mer random dsDNA library, 0.1% …; high values mean tight binding; double strand, one strand shown; scale: fold enrichment (6-mer frequency, TF over GST control)
# ELF2 = target: T1, ELF2 (UniProt Q15723); experiment: as above; settings: 10 mM Tris-HCl pH 7.5, 50 mM NaCl, 1 mM DTT, 4% glycerol, room temperature, 30 min; GST-TFs on glutathione beads, 16-mer random dsDNA library, 0.1% …; high values mean tight binding; double strand, one strand shown; scale: fold enrichment (6-mer frequency, TF over GST control)
# T1 sequence: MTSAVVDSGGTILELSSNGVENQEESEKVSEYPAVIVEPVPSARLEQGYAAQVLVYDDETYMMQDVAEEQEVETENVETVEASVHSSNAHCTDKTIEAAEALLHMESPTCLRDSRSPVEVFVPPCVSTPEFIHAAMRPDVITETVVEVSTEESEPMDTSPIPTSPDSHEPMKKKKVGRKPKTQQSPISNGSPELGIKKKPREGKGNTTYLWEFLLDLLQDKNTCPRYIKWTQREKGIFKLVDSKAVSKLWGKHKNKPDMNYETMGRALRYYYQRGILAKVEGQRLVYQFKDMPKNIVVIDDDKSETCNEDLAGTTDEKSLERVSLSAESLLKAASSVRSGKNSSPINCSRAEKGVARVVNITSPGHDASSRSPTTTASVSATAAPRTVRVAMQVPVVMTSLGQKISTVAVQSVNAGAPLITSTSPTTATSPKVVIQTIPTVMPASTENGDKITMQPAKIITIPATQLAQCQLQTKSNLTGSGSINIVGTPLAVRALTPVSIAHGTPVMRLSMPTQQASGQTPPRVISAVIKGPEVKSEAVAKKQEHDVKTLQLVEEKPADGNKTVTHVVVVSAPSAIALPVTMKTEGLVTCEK
Sequence,binding signal (HSF1),binding signal (ELF2)
CAGGCC,0.612,0.679
GCTGGA,1.19,0.779
TGGAGG,0.451,0.492
CAGGCT,0.853,0.812
AGCCAG,0.499,0.465
GACACC,0.638,0.884

# — PMC7862700
